# Data as given in PubChem BioAssay AID1224830 (NIAID, 2016)
# Assay: 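Genes whose knock-down alters the TNF-alpha reporter response to LPS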 (primary screen)
# Cell system: human THP-1 monocytic leukaemia cells, TNF dual-luciferase reporter clone, PMA-differentiated to macrophage-like cells
# Knock-down reagent: siRNA pool against human genes, 50 nM
# Timing: LPS for 4 h, given about 3 days after siRNA transfection
# Treatment: bacterial LPS (TLR4 ligand), 10 ng/ml
# Detection: 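TNF firefly reporter luminescence divided by renilla, normalised to the plate median, then turned into a robust z-score for each replicate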
# Scale: TNF reporter robust z-score: higher = stronger TNF reporter response to LPS
# Active means: 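a well is active when its z-score exceeds 2.8 or falls below -1.5; control wells carry no call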
# The deposit covers about 18,000 reagents; below is a part drawn at random. About 2,900 of all reagents (16%) count as active. 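Calls are made per well; low scores hint the gene aids the LPS response, high scores that it dampens it.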 Unmarked entries are inactive. Reagents against one gene are numbered here. Repeated entries: four replicate wells of each siRNA pool.
target gene,reagent no.,TNF reporter robust z-score
OR4C46,1,-0.71
OR4C46,1,0.27
OR4C46,1,-0.31
OR4C46,1,0.64
SLC36A3,1,-1.74 (active)
SLC36A3,1,-1.22
SLC36A3,1,-2 (active)
SLC36A3,1,-1.46
ITSN1,1,-0.12
ITSN1,1,-0.07
ITSN1,1,0.63
ITSN1,1,0.93
MSI2,1,-0.48
MSI2,1,0.53
MSI2,1,-0.63
MSI2,1,0.32
LMX1B,1,2.67
LMX1B,1,-0.29
LMX1B,1,0.05
LMX1B,1,-0.99
BCS1L,1,-1.45
BCS1L,1,0.22
BCS1L,1,-0.98
BCS1L,1,-1
SNX10,1,1.18
SNX10,1,1.45
SNX10,1,1.54
SNX10,1,1.81

9 entries from above in another layout:
| target gene | reagent no. | TNF reporter robust z-score |
| --- | --- | --- |
| ITSN1 | 1 | 0.63 |
| ITSN1 | 1 | 0.93 |
| MSI2 | 1 | -0.48 |
| MSI2 | 1 | 0.53 |
| MSI2 | 1 | -0.63 |
| MSI2 | 1 | 0.32 |
| LMX1B | 1 | 2.67 |
| LMX1B | 1 | -0.29 |
| LMX1B | 1 | 0.05 |

Next entries:
target gene,reagent no.,TNF reporter robust z-score
GJA4,1,-0.51
GJA4,1,0.86
GJA4,1,-0.15
GJA4,1,0.39
SPATA31A1,1,1.19
SPATA31A1,1,1.15
SPATA31A1,1,0.16
SPATA31A1,1,-0.31
SPATA31A1,2,-0.63
SPATA31A1,2,-0.19
SPATA31A1,2,1.43
SPATA31A1,2,0.89
SLC5A2,1,-0.23
SLC5A2,1,0.93
SLC5A2,1,0.63
SLC5A2,1,1.86
TTC16,1,1.23
TTC16,1,1.13
TTC16,1,1.17
TTC16,1,0.94
ARAF,1,0.28
ARAF,1,1.82
ARAF,1,1.8
ARAF,1,1.19
LYPD8,1,-1.1
LYPD8,1,-0.51
LYPD8,1,-0.41
LYPD8,1,-0.7
CIB3,1,-1.03
CIB3,1,-0.64
CIB3,1,0.29
CIB3,1,0.75
ZNF689,1,-0.1
ZNF689,1,0.97
ZNF689,1,0.05
ZNF689,1,0.32
RASGRP4,1,-0.35
RASGRP4,1,0.15
RASGRP4,1,-0.29
RASGRP4,1,-0.2
BAG1,1,-1.36
BAG1,1,-0.63
BAG1,1,-0.53
BAG1,1,-1.5
ASGR1,1,-1.75 (active)
ASGR1,1,-1.47
ASGR1,1,-1.26
ASGR1,1,-0.45
